In the supplement of paper PMC6411743:
± gives the standard deviation of the averaged measurements. The list shows a part of the results, in another mix than the full data.

Chains of the proteins cited; added tags and fusions are not shown. Lines headed by an entry give the natural chain unless they say otherwise; changes in a name come on top.
UniProt P56134: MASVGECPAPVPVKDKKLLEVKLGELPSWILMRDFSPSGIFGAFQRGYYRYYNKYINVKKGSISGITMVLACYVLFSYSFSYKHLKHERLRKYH
UniProt Q8TAG9: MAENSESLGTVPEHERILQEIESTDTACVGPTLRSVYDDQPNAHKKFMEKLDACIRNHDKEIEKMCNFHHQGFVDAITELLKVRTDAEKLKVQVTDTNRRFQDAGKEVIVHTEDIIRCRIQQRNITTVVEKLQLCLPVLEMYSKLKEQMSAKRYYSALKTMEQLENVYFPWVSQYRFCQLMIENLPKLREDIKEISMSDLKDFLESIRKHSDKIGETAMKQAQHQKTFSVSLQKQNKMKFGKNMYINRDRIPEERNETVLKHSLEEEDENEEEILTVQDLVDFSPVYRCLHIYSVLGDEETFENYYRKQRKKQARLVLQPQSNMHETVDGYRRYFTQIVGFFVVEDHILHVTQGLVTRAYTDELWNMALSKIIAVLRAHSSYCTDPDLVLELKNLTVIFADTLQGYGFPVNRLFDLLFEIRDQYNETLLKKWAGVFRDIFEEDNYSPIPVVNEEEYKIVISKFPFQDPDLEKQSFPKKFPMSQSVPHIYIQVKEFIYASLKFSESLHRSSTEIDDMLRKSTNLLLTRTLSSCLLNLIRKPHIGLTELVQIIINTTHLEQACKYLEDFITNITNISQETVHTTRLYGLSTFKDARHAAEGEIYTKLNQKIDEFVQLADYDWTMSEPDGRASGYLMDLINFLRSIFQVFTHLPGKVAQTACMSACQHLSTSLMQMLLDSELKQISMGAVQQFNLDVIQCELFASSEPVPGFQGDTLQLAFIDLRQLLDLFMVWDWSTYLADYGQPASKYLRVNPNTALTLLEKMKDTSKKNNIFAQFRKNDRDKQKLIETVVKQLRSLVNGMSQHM
UniProt Q9UBU9: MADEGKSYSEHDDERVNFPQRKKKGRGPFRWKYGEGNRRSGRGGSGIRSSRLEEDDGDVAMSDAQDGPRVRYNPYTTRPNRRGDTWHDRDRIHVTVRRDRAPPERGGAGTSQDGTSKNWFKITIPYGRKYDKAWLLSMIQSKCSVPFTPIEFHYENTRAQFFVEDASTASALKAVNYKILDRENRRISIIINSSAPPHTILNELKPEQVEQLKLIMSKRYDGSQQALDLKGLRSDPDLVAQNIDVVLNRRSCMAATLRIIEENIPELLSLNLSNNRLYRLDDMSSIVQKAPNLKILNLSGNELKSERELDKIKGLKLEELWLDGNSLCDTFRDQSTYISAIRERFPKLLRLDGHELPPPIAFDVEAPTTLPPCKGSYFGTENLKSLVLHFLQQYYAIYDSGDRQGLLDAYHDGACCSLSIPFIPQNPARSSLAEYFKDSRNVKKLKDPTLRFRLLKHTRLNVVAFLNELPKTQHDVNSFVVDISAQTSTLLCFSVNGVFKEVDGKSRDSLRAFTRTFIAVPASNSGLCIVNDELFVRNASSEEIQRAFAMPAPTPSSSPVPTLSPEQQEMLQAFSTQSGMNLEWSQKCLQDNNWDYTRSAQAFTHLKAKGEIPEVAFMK
UniProt Q9H6E5: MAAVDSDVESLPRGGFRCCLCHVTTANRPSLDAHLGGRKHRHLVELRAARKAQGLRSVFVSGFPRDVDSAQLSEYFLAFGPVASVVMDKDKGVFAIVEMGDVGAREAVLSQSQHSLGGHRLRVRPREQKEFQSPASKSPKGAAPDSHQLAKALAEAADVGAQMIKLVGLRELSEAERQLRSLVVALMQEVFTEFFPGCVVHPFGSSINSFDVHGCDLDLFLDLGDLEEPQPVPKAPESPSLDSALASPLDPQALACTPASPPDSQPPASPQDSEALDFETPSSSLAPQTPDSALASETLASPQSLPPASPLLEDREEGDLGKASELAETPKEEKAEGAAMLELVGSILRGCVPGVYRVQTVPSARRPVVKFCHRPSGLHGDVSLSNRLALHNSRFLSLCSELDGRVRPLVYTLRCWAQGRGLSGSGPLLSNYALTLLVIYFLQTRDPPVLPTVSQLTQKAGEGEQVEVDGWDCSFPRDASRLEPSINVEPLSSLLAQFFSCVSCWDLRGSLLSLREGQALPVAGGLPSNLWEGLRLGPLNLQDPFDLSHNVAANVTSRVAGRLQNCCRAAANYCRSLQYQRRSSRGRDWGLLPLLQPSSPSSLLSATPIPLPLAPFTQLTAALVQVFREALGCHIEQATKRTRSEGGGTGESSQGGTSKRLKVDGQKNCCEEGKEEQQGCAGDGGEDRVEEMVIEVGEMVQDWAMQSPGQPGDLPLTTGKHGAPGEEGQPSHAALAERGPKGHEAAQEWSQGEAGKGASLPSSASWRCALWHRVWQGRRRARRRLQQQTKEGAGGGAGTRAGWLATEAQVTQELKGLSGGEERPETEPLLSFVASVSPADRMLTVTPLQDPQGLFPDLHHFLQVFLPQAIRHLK
UniProt P10809, whole entry: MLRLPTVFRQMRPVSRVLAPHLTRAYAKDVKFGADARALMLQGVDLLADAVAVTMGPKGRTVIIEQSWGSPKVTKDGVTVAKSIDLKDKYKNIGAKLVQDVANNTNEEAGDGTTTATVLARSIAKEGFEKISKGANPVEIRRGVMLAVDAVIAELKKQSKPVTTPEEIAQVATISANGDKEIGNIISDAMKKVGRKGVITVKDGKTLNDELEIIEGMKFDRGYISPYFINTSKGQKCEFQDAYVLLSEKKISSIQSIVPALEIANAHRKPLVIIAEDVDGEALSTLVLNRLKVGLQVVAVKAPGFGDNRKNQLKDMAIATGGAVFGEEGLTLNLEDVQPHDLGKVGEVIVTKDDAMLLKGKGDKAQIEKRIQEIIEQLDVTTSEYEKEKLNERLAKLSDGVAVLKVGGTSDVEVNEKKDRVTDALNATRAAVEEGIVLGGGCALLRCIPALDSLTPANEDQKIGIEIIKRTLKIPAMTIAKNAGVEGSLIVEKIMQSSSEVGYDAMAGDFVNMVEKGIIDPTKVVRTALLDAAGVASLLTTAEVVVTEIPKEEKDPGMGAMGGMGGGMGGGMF
UniProt Q04323: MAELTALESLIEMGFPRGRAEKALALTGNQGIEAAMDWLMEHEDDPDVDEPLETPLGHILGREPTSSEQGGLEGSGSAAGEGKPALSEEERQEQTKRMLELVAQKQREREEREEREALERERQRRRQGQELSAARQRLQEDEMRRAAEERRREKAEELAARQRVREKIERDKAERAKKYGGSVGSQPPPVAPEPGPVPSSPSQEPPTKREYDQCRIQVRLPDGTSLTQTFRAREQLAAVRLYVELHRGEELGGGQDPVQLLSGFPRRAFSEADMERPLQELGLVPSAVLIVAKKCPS
UniProt O43572: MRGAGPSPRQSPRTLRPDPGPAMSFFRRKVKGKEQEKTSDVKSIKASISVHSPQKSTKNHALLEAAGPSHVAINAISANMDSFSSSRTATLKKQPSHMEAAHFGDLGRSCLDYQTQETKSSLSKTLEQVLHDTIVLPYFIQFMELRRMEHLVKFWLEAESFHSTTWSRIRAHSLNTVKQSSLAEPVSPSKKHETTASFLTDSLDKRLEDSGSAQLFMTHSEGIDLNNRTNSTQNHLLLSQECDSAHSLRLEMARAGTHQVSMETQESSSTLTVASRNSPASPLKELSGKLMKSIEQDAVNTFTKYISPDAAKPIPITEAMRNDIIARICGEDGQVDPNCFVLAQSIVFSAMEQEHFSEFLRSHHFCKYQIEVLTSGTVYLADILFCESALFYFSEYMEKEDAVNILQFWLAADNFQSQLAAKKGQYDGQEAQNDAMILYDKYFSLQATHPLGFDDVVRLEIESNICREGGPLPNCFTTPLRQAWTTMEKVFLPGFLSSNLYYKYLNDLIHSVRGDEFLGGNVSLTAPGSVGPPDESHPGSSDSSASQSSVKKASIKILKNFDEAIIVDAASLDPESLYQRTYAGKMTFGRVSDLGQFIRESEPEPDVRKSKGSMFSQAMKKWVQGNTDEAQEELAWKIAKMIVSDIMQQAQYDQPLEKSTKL
UniProt P61916: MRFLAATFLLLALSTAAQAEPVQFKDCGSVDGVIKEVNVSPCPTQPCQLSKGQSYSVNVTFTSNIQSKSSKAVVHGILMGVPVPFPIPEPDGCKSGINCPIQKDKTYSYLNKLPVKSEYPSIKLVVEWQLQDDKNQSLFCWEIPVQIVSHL
UniProt Q96FZ2: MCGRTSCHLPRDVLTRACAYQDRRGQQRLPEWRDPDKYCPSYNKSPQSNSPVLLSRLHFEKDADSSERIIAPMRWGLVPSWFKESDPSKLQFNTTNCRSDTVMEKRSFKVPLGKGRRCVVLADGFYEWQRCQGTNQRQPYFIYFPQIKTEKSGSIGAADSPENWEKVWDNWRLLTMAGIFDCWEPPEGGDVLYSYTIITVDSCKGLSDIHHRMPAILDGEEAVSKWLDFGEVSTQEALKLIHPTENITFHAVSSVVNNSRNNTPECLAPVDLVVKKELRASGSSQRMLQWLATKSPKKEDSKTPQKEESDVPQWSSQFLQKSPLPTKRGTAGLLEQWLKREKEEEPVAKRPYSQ
UniProt Q9BY11: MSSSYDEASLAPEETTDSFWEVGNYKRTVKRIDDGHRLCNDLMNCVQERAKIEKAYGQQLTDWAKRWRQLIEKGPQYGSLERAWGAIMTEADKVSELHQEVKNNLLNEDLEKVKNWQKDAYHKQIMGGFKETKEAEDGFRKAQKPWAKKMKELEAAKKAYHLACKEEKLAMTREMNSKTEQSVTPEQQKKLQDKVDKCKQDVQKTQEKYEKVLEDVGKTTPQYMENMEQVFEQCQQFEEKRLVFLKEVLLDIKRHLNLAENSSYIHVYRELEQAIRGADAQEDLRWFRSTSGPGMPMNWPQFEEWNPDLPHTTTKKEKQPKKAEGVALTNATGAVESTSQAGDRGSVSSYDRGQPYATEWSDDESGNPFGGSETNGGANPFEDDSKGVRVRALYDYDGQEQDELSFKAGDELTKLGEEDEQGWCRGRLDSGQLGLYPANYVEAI
UniProt Q8N9N8: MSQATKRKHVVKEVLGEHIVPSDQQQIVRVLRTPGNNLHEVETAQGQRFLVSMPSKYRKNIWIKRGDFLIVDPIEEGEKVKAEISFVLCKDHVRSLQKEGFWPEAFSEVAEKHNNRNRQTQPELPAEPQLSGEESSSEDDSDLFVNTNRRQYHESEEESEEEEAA
UniProt Q6NXE6: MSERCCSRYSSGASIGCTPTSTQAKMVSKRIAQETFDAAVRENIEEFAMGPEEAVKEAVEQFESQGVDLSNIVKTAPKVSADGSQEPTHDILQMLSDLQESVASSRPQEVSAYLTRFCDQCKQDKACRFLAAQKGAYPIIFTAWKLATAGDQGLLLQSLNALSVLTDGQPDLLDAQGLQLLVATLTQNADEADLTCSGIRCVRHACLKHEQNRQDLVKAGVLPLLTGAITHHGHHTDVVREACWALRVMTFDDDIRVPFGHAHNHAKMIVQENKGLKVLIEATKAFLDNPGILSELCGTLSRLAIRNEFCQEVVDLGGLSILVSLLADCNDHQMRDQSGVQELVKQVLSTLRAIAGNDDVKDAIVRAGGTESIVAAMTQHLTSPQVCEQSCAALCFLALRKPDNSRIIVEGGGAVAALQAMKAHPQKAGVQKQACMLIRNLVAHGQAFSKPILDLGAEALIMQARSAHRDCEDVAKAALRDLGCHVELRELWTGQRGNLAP
UniProt P20936: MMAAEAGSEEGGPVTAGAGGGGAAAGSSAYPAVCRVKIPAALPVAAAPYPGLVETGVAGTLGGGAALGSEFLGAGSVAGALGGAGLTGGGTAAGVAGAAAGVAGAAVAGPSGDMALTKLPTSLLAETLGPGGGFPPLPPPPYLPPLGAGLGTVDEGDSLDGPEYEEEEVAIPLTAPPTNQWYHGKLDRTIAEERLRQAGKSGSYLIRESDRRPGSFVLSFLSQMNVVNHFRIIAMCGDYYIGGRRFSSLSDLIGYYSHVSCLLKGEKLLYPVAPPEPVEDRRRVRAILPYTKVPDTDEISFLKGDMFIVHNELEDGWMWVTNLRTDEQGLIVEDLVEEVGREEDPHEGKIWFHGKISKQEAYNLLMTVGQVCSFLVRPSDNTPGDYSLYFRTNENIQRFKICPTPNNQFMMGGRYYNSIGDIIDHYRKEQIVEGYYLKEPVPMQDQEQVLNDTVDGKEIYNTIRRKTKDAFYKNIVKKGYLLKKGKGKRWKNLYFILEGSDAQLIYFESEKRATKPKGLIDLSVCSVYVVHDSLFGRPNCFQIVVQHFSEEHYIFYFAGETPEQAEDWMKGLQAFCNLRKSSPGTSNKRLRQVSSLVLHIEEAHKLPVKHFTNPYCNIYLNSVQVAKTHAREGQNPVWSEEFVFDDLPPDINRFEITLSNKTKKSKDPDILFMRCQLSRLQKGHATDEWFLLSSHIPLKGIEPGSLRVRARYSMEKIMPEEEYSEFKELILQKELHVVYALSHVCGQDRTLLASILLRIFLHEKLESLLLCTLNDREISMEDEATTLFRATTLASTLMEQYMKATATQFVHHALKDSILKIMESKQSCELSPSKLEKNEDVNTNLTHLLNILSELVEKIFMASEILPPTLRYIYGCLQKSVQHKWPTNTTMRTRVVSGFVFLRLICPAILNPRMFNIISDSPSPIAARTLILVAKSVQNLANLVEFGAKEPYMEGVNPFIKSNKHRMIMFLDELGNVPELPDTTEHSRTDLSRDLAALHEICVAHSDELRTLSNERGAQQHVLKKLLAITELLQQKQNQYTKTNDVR

Compound: Nc1ncnc2c1ncn2[C@@H]1O[C@H](COP(=O)(O)OP(=O)(O)NP(=O)(O)O)[C@@H](O)[C@H]1O [adenylyl imidodiphosphate]
Assay: NP40-soluble protein abundance relative to vehicle (solubility fold change) (ratio); higher = more soluble protein in presence of AMP-PNP
Procedure, shortened: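 Crude Jurkat lysate, prepared by Dounce homogenisation, was exposed to eight concentrations from 0.1 to 10 mM for 10 min at room temperature and then 3 min at 37 °C. Solubilisation used 0.8% NP40 with benzonase for 60 min at 4 °C, followed by ultracentrifugation and TMT labelling of the supernatant for LC-MS/MS. After vsn normalisation of intensities, each value is the fold change against the detergent-processed vehicle within each replicate, across three independent experiments.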

Row | Target | NP40-soluble protein abundance (concentration: 1mM) | NP40-soluble protein abundance (concentration: 2mM) | NP40-soluble protein abundance (concentration: 4mM) | NP40-soluble protein abundance (concentration: 6mM) | NP40-soluble protein abundance (concentration: 8mM) | NP40-soluble protein abundance (concentration: 10mM)
1 | G3V325 (UniProt P56134) | 0.999 ± 0.015 | 0.982 ± 0.016 | 0.97 ± 0.0093 | 0.9654 ± 0.0065 | 0.999 ± 0.029 | 0.976 ± 0.038
2 | E7EW84 and related entries (UniProt Q8TAG9) | 1 ± 0.039 | 0.975 ± 0.041 | 1.02 ± 0.053 | 0.957 ± 0.017 | 0.963 ± 0.016 | 0.98 ± 0.035
3 | F5GWN5 and related entries (UniProt O00750) | 1.006 ± 0.0069 | 0.981 ± 0.025 | 1.01 ± 0.033 | 0.989 ± 0.031 | 0.9687 ± 0.0093 | 0.96 ± 0.027
4 | E9PIN3 and related entries (UniProt Q9UBU9) | 1.01 ± 0.018 | 0.998 ± 0.058 | 1.07 ± 0.014 | 1.14 ± 0.046 | 1.18 ± 0.032 | 1.26 ± 0.032
5 | F5H0R1 and related entries (UniProt Q9H6E5) | 0.994 ± 0.023 | 1.01 ± 0.039 | 1.02 ± 0.016 | 0.973 ± 0.032 | 0.983 ± 0.024 | 0.978 ± 0.025
6 | E7ESH4 and related entries (UniProt P10809) | 1.01 ± 0.041 | 1.02 ± 0.022 | 0.973 ± 0.018 | 0.968 ± 0.057 | 0.95 ± 0.033 | 0.975 ± 0.028
7 | F8W060 and related entries (UniProt Q9BZF1) | 0.988 ± 0.022 | 0.992 ± 0.013 | 0.9902 ± 0.0052 | 0.944 ± 0.031 | 0.934 ± 0.013 | 0.955 ± 0.013
8 | E7ETU5 and related entries (UniProt P29558) | 0.986 ± 0.045 | 1.02 ± 0.06 | 0.966 ± 0.068 | 0.933 ± 0.032 | 0.936 ± 0.053 | 0.948 ± 0.041
9 | E9PJ81 and related entries (UniProt Q04323) | 0.991 ± 0.016 | 1.03 ± 0.024 | 0.985 ± 0.052 | 0.977 ± 0.053 | 0.99 ± 0.023 | 0.977 ± 0.041
10 | E9PEI0 and related entries (UniProt Q69YH5) | 1 ± 0.022 | 0.958 ± 0.02 | 1 ± 0.025 | 0.998 ± 0.025 | 0.975 ± 0.037 | 1.01 ± 0.038
11 | E7EMD6 and related entries (UniProt O43572) | 1 ± 0.038 | 1.009 ± 0.0089 | 1.01 ± 0.033 | 0.979 ± 0.015 | 0.971 ± 0.025 | 0.962 ± 0.013
12 | F5H0U5 and related entries (UniProt Q9NZD2) | 0.966 ± 0.087 | 0.999 ± 0.048 | 0.954 ± 0.11 | 0.915 ± 0.051 | 0.936 ± 0.047 | 0.888 ± 0.099
13 | E7EMS2 and related entries (UniProt P61916) | 0.99 ± 0.017 | 1.06 ± 0.073 | 0.937 ± 0.043 | 0.992 ± 0.011 | 0.929 ± 0.03 | 0.979 ± 0.061
14 | F8VXU5 and related entries (UniProt Q9UBQ0) | 0.93 ± 0.037 | 0.853 ± 0.058 | 0.901 ± 0.035 | 0.986 ± 0.071 | 1 ± 0.038 | 0.95 ± 0.047
15 | F6TLX2 and related entries (UniProt Q9HC38) | 1.01 ± 0.02 | 1.01 ± 0.014 | 0.981 ± 0.03 | 0.958 ± 0.035 | 0.938 ± 0.034 | 0.95 ± 0.047
16 | F5GXX6 and related entries (UniProt Q9NQ89) | 0.976 ± 0.025 | 1 ± 0.041 | 0.982 ± 0.0099 | 0.976 ± 0.012 | 0.9379 ± 0.0013 | 0.937 ± 0.029
17 | E9PIE4 and related entries (UniProt Q9Y6C9) | 0.948 ± 0.037 | 0.884 ± 0.074 | 0.941 ± 0.021 | 0.945 ± 0.052 | 1 ± 0.027 | 0.944 ± 0.022
18 | E9PF18 and related entries (UniProt Q16836) | 0.996 ± 0.02 | 0.99 ± 0.02 | 0.961 ± 0.024 | 1.01 ± 0.039 | 1.01 ± 0.043 | 1 ± 0.059
19 | E7EMP6 and related entries (UniProt Q96FZ2) | 1.06 ± 0.015 | 1.01 ± 0.032 | 1.04 ± 0.021 | 0.9875 ± 0.0043 | 1.01 ± 0.016 | 1 ± 0.033
20 | F6U236 and related entries (UniProt Q9BY11) | 0.978 ± 0.036 | 1.03 ± 0.057 | 0.968 ± 0.018 | 1 ± 0.063 | 0.978 ± 0.069 | 0.989 ± 0.054
21 | F5H2X7 and related entries (UniProt Q9ULV3) | 1.06 ± 0.048 | 1.12 ± 0.027 | 1.05 ± 0.039 | 1.08 ± 0.037 | 1.02 ± 0.059 | 1.07 ± 0.069
22 | E9PNY1 and related entries (UniProt O95159) | 0.966 ± 0.024 | 0.968 ± 0.038 | 0.948 ± 0.021 | 1.01 ± 0.057 | 1.01 ± 0.045 | 0.984 ± 0.012
23 | E9PLI6 and related entries (UniProt Q8N9N8) | 0.954 ± 0.02 | 1 ± 0.05 | 0.977 ± 0.036 | 0.987 ± 0.024 | 0.998 ± 0.03 | 1.03 ± 0.024
24 | F5H3X1 and related entries (UniProt Q6NXE6) | 0.959 ± 0.049 | 0.932 ± 0.017 | 0.95 ± 0.048 | 0.92 ± 0.045 | 0.899 ± 0.082 | 0.857 ± 0.07
25 | E9PCG9 and related entries (UniProt Q02338) | 0.967 ± 0.018 | 0.949 ± 0.049 | 0.981 ± 0.022 | 0.95 ± 0.022 | 0.987 ± 0.0076 | 0.959 ± 0.015
26 | E9PK61 and related entries (UniProt O14681) | 0.955 ± 0.027 | 0.925 ± 0.037 | 0.995 ± 0.068 | 1.05 ± 0.087 | 1.1 ± 0.041 | 1.09 ± 0.074
27 | E9PGC0 and related entries (UniProt P20936) | 1.027 ± 0.01 | 1.01 ± 0.023 | 1.034 ± 0.01 | 1 ± 0.028 | 1.06 ± 0.048 | 1.03 ± 0.026
28 | F8VSL3 and related entries (UniProt P25208) | 1 ± 0.046 | 1.04 ± 0.058 | 0.971 ± 0.04 | 0.976 ± 0.036 | 0.957 ± 0.056 | 0.954 ± 0.039
